Measurements published in patent US4005194A (Abbott Laboratories, priority 1975, dated 1977).
Some peptides are written in HELM: one residue between dots, names in brackets for other building blocks, links after the first $.

Test: general procedure: Boc solid-phase peptide synthesis; chloromethylated divinylbenzene-styrene copolymer (Bio-Rad Merrifield resin), 2% cross linking, 0.47 millimoles of proli
Settings: whole synthesis, overall, scale of the general procedure 4.6 g of resin

Substance “PEPTIDE1{[pGlu].H.W.S.Y.[dL].L.R.P.[NHEt]}$$$$V2.0” has an isolated yield of 25%.
